Test results taken from paper PMC12629859.
Results are given in words; binding and its absence hold for the method and conditions named. In cells and extracts the contact can be indirect. Here binding means that the protein was enriched with, or labelled near, the bait; the list need not be complete.

The chains behind the UniProt entries cited, without tags or fusion partners. Where a name states a change or a piece, a line headed by the entry shows the natural chain unless it says otherwise.
UniProt P07711: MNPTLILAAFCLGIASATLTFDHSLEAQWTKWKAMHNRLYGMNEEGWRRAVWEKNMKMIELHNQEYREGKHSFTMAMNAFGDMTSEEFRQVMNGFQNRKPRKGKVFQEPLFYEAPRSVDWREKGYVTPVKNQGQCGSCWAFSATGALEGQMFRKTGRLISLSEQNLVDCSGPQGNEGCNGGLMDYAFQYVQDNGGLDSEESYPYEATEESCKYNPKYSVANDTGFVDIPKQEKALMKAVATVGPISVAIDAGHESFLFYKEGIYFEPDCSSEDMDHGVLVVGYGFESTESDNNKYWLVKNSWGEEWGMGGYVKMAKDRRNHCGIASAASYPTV
UniProt O00487: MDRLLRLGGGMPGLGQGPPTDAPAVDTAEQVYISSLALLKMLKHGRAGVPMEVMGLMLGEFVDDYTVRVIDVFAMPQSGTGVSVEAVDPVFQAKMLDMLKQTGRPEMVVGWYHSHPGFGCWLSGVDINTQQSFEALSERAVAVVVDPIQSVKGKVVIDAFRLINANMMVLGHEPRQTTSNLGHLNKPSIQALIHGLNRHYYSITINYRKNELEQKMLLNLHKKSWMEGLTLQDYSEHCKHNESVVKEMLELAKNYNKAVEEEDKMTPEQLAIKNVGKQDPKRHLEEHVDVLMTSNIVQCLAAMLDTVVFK

Target: Flag-tagged overexpressed CTSL (FaDu cells) (UniProt P07711)
Assay: affinity purification with mass spectrometry; Flag-tagged CTSL overexpressed in FaDu cells; lysate in IP lysis buffer, IP overnight at 4°C, elution by boiling or FLAG peptide, LC-MS/MS

| binding | Molecule |
| --- | --- |
| binds | POH1, endogenous (FaDu) (from UniProt O00487 1-310) (enzyme) |
| binds | Ubiquitin-specific protease 20 (USP20), endogenous (from UniProt Q9Y2K6 1-914) (enzyme) |
| binds | USP15, endogenous (FaDu) (enzyme, UniProt Q9Y4E8 1-981) MAEGGAADLDTQRSDIATLLKTSLRKGDTWYLVDSRWFKQWKKYVGFDSWDKYQMGDQNVYPGPIDNSGLLKDGDAQSLKEHLIDELDYILLPTEGWNKLVSWYTLMEGQEPIARKVVEQGMFVKHCKVEVYLTELKLCENGNMNNVVTRRFSKADTIDTIEKEIRKIFSIPDEKETRLWNKYMSNTFEPLNKPDSTIQDAGLYQGQVLVIEQKNEDGTWPRGPSTPKSPGASNFSTLPKISPSSLSNNYNNMNNRNVKNSNYCLPSYTAYKNYDYSEPGRNNEQPGLCGLSNLGNTCFMNSAIQCLSNTPPLTEYFLNDKYQEELNFDNPLGMRGEIAKSYAELIKQMWSGKFSYVTPRAFKTQVGRFAPQFSGYQQQDCQELLAFLLDGLHEDLNRIRKKPYIQLKDADGRPDKVVAEEAWENHLKRNDSIIVDIFHGLFKSTLVCPECAKISVTFDPFCYLTLPLPMKKERTLEVYLVRMDPLTKPMQYKVVVPKIGNILDLCTALSALSGIPADKMIVTDIYNHRFHRIFAMDENLSSIMERDDIYVFEININRTEDTEHVIIPVCLREKFRHSSYTHHTGSSLFGQPFLMAVPRNNTEDKLYNLLLLRMCRYVKISTETEETEGSLHCCKDQNINGNGPNGIHEEGSPSEMETDEPDDESSQDQELPSENENSQSEDSVGGDNDSENGLCTEDTCKGQLTGHKKRLFTFQFNNLGNTDINYIKDDTRHIRFDDRQLRLDERSFLALDWDPDLKKRYFDENAAEDFEKHESVEYKPPKKPFVKLKDCIELFTTKEKLGAEDPWYCPNCKEHQQATKKLDLWSLPPVLVVHLKRFSYSRYMRDKLDTLVDFPINDLDMSEFLINPNAGPCRYNLIAVSNHYGGMGGGHYTAFAKNKDDGKWYYFDDSSVSTASEDQIVSKAAYVLFYQRQDTFSGTGFFPLDRETKGASAATGIPLESDEDSNDNDNDIENENCMHTN |
| binds | USP8, endogenous (FaDu) (enzyme, UniProt P40818 1-1118) MPAVASVPKELYLSSSLKDLNKKTEVKPEKISTKSYVHSALKIFKTAEECRLDRDEERAYVLYMKYVTVYNLIKKRPDFKQQQDYFHSILGPGNIKKAVEEAERLSESLKLRYEEAEVRKKLEEKDRQEEAQRLQQKRQETGREDGGTLAKGSLENVLDSKDKTQKSNGEKNEKCETKEKGAITAKELYTMMTDKNISLIIMDARRMQDYQDSCILHSLSVPEEAISPGVTASWIEAHLPDDSKDTWKKRGNVEYVVLLDWFSSAKDLQIGTTLRSLKDALFKWESKTVLRNEPLVLEGGYENWLLCYPQYTTNAKVTPPPRRQNEEVSISLDFTYPSLEESIPSKPAAQTPPASIEVDENIELISGQNERMGPLNISTPVEPVAASKSDVSPIIQPVPSIKNVPQIDRTKKPAVKLPEEHRIKSESTNHEQQSPQSGKVIPDRSTKPVVFSPTLMLTDEEKARIHAETALLMEKNKQEKELRERQQEEQKEKLRKEEQEQKAKKKQEAEENEITEKQQKAKEEMEKKESEQAKKEDKETSAKRGKEITGVKRQSKSEHETSDAKKSVEDRGKRCPTPEIQKKSTGDVPHTSVTGDSGSGKPFKIKGQPESGILRTGTFREDTDDTERNKAQREPLTRARSEEMGRIVPGLPSGWAKFLDPITGTFRYYHSPTNTVHMYPPEMAPSSAPPSTPPTHKAKPQIPAERDREPSKLKRSYSSPDITQAIQEEEKRKPTVTPTVNRENKPTCYPKAEISRLSASQIRNLNPVFGGSGPALTGLRNLGNTCYMNSILQCLCNAPHLADYFNRNCYQDDINRSNLLGHKGEVAEEFGIIMKALWTGQYRYISPKDFKITIGKINDQFAGYSQQDSQELLLFLMDGLHEDLNKADNRKRYKEENNDHLDDFKAAEHAWQKHKQLNESIIVALFQGQFKSTVQCLTCHKKSRTFEAFMYLSLPLASTSKCTLQDCLRLFSKEEKLTDNNRFYCSHCRARRDSLKKIEIWKLPPVLLVHLKRFSYDGRWKQKLQTSVDFPLENLDLSQYVIGPKNNLKKYNLFSVSNHYGGLDGGHYTAYCKNAARQRWFKFDDHEVSDISVSSVKSSAAYILFYTSLGPRVTDVAT |
| binds | USP36, endogenous (FaDu) (enzyme, UniProt Q9P275 1-1123) MPIVDKLKEALKPGRKDSADDGELGKLLASSAKKVLLQKIEFEPASKSFSYQLEALKSKYVLLNPKTEGASRHKSGDDPPARRQGSEHTYESCGDGVPAPQKVLFPTERLSLRWERVFRVGAGLHNLGNTCFLNATIQCLTYTPPLANYLLSKEHARSCHQGSFCMLCVMQNHIVQAFANSGNAIKPVSFIRDLKKIARHFRFGNQEDAHEFLRYTIDAMQKACLNGCAKLDRQTQATTLVHQIFGGYLRSRVKCSVCKSVSDTYDPYLDVALEIRQAANIVRALELFVKADVLSGENAYMCAKCKKKVPASKRFTIHRTSNVLTLSLKRFANFSGGKITKDVGYPEFLNIRPYMSQNNGDPVMYGLYAVLVHSGYSCHAGHYYCYVKASNGQWYQMNDSLVHSSNVKVVLNQQAYVLFYLRIPGSKKSPEGLISRTGSSSLPGRPSVIPDHSKKNIGNGIISSPLTGKRQDSGTMKKPHTTEEIGVPISRNGSTLGLKSQNGCIPPKLPSGSPSPKLSQTPTHMPTILDDPGKKVKKPAPPQHFSPRTAQGLPGTSNSNSSRSGSQRQGSWDSRDVVLSTSPKLLATATANGHGLKGNDESAGLDRRGSSSSSPEHSASSDSTKAPQTPRSGAAHLCDSQETNCSTAGHSKTPPSGADSKTVKLKSPVLSNTTTEPASTMSPPPAKKLALSAKKASTLWRATGNDLRPPPPSPSSDLTHPMKTSHPVVASTWPVHRARAVSPAPQSSSRLQPPFSPHPTLLSSTPKPPGTSEPRSCSSISTALPQVNEDLVSLPHQLPEASEPPQSPSEKRKKTFVGEPQRLGSETRLPQHIREATAAPHGKRKRKKKKRPEDTAASALQEGQTQRQPGSPMYRREGQAQLPAVRRQEDGTQPQVNGQQVGCVTDGHHASSRKRRRKGAEGLGEEGGLHQDPLRHSCSPMGDGDPEAMEESPRKKKKKKRKQETQRAVEEDGHLKCPRSAKPQDAVVPESSSCAPSANGWCPGDRMGLSQAPPVSWNGERESDVVQELLKYSSDKAYGRKVLTWDGKMSAVSQDAIEDSRQARTETVVDDWDEEFDRGKEKKIKKFKREKRRNFNAFQKLQTRRNFWSVTHPAKAASLSYRR |
